Measurements reported in PubChem BioAssay AID493014 (National Center for Advancing Translational Sciences (NCATS), 2011).
The list shows a part of the results. These are further read-outs of the screen, such as a control signal, another cell line or another target. No call is given for them. Most of these compounds were active or inconclusive in the main read-out, so they are no random draw. Potencies come from curve fits of mixed quality, noted in brackets.

Assay: qHTS Assay to Find Inhibitors of Chronic Active B-Cell Receptor Signaling
Conditions: ABC-DLBCL IkBa-CBG/CBR reporter, luminescence ratio (green luciferase fused to IkBa over red control in TMD8 lymphoma cells), 4 h
Method in brief: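 Cell line TMD8 (human ABC DLBCL), stably expressing tet-inducible CBG68-IkBa fusion and CBR; IMDM/0.5% FBS; cpd up to 46 uM; dox induction, 4 h, 37C/5% CO2; dual luminescence; green/red ratio; MG132 control.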

[1] = measured here: CBR red luminescence, cell number
[2] = measured here: IkBa-CBG green luminescence

| Compound | AC50 [1] | AC50 [2] |
| --- | --- | --- |
| CC(C)(C)c1ccc(C(=O)NCCC(=O)N2CCN(c3ncccn3)CC2)cc1 | 29.1 µM [falling, partial curve, poor fit] |  |
| C/C(N)=C(/C#N)C(=O)COc1ccc(Cl)cc1Cl | 11.2 µM [rising, partial curve, poor fit] |  |
| COC(=O)c1cc(=O)n(-c2c(Cl)cc(C(F)(F)F)cc2Cl)[nH]1 | 20 µM [falling, single point] |  |
| Oc1[nH]c2ccccc2c1N=Nc1nncc2ccccc12 | 0.282 µM [falling, full curve, poor fit] |  |
| CCN(CC)C(=O)C(=O)Nc1ccc(F)c(Cl)c1 | 14.1 µM [falling, single point] |  |
| CCc1c(C)sc(NC(=S)N2CCN(S(C)(=O)=O)CC2)c1C(=O)OC | 7.08 µM [rising, partial curve, poor fit] |  |
| CN1C(C(=O)Nc2ccccn2)=C(O)c2ccccc2S1(=O)=O | 12.6 µM [falling, partial curve] |  |
| Cc1ccc(-c2c[n+](Cc3ccc(Cl)c(Cl)c3)c3n2CCC3)cc1 | 29.1 µM [falling, single point] |  |
| O=C(Nc1nc2ccccc2[nH]1)NC1CCCCC1 | 7.94 µM [falling, partial curve, poor fit] |  |
| C/C=C(\C)C(=O)OC1CC(C)(C)C[C@H]2C3=CC[C@@H]4[C@@]5(C)CCC(O[C@@H]6O[C@@H](C(=O)O)[C@@H](O)C(O[C@@H]7OC[C@H](O)[C@@H](O)[C@@H]7O[C@@H]7OC(CO)C(O)[C@@H](O)[C@@H]7O)C6O[C@@H]6OC(CO)C(O)C(O)C6O)[C@@](C)(CO)[C@@H]5CC[C@]4(C)[C@]3(C)CC(O)[C@@]12CO (stereo partly specified) | 23.1 µM [rising, single point] |  |
| OCCC1CN(Cc2cc3c(cc2Cl)OCO3)CCN1Cc1ccccc1 (stereo unspecified) | 8.91 µM [falling, single point] |  |
| O=C1C=C(c2ccc3c(c2)OCO3)C[C@@H](c2ccc(F)cc2)C1 | 3.26 µM [rising, full curve, poor fit] |  |
| CNCC(O)Cn1c2c(c3ccccc31)CCCC2 (stereo unspecified) | 17.8 µM [falling, single point] |  |
| CCOC(=O)Cc1csc(NC(=O)CC)n1 | 17.8 µM [rising, partial curve, poor fit] |  |
| NC(=O)c1cc(N2C(=O)C=CC2=O)ccc1Cl | 22.4 µM [falling, single point] | 22.4 µM [rising, partial curve, poor fit] |
| CS(=O)(=O)c1ccccc1C(=O)Nc1ccc(-c2nc3ccccc3[nH]2)cc1 | 10 µM [falling, partial curve] |  |
| O=C(Cc1cccs1)NCCc1ccc(F)cc1 | 0.891 µM [rising, full curve, poor fit] |  |
| C=CCNc1sc(C(=O)c2cccs2)c(N)c1C#N | 3.26 µM [falling, partial curve, poor fit] |  |
| COC(=O)c1cn(CC(=O)NCc2ccco2)c2ccccc12 | 0.00411 µM [falling, full curve, poor fit] |  |
| Cc1nc(Nc2cccc(O)c2)c2oc3ccccc3c2n1 | 22.4 µM [falling, partial curve, poor fit] |  |

| Compound | AC50 [1] | AC50 [2] |
| --- | --- | --- |
| COc1ccc(N2CSC3=C(C#N)C(c4cccs4)CC(=O)N3C2)cc1 (stereo unspecified) | 22.4 µM [rising, single point] | 35.5 µM [falling, single point] |
| O=C(NNC(=S)Nc1ccccc1)Nc1ccccc1 | 4.47 µM [falling, partial curve] |  |
| COc1ccccc1N(CC(=O)NCCSCc1cccc(C)c1)S(=O)(=O)c1ccccc1 | 25.1 µM [falling, single point] |  |
| COc1ccc(CCN(C(=O)C(F)(F)F)C(C(=O)NC2CCCC2)c2cccs2)cc1OC (stereo unspecified) | 4.61 µM [rising, full curve, poor fit] |  |
| O=C(O)c1cc(Br)ccc1NN=C1CCCCC1 | 0.366 µM [falling, full curve, poor fit] |  |
| COCCCNC(=S)NNC(=S)Nc1ccccc1 | 10 µM [falling, partial curve, poor fit] |  |
| COc1ccc(-c2csc(C3=C(O)CN(CCCN4CCCC4=O)C3=N)n2)cc1OC | 0.251 µM [rising, full curve, poor fit] | 14.1 µM [falling, partial curve] |
| O=C(COc1cccc2c1CCN(Cc1ccccc1F)C2=O)N1CCOCC1 | 22.4 µM [falling, single point] |  |
| Cn1c(SCC(=O)N2CCCCCC2)nc2c(c1=O)SCC2 | 6.31 µM [falling, partial curve, poor fit] |  |
| Cn1cc(/C=C(\NC(=O)c2ccccc2Cl)C(=O)N2CCOCC2)c2ccccc21 | 4.47 µM [falling, single point] |  |
| COC(=O)c1sc(NC(=S)NC(=O)c2ccccc2C)nc1C | 22.4 µM [falling, single point] |  |
| O=C(c1ccco1)N1CCN(Cc2csc(-c3ccccc3Cl)n2)CC1 | 14.1 µM [falling, partial curve, poor fit] |  |
| Cn1nc(C(=O)OCCN2C(=O)c3ccccc3C2=O)c2ccccc2c1=O | 0.0517 µM [falling, full curve, poor fit] |  |
| CC(C)CC(COCc1ccc(Cl)cc1)N1CCN(C(=O)c2ccc(C(F)(F)F)cc2)CCC1=O (stereo unspecified) | 0.92 µM [falling, full curve, poor fit] |  |
| O=C(NC(=S)N1CCOCC1)c1cn(-c2ccccc2)nc1-c1ccccc1 | 5.8 µM [rising, full curve] | 18.4 µM [falling, partial curve] |
| Cc1cc(N2CCN(C)CC2)ccc1NC(=O)c1cccc(S(=O)(=O)N2CCc3ccccc3C2)c1 | 35.5 µM [falling, single point] |  |
| O=C(NNC1=C(C(=O)C(F)(F)F)CCC1)c1ccc(Cl)cc1 | 2.24 µM [falling, full curve, poor fit] |  |
| CCOC(=O)c1ccc(N2CCN(c3cccc(Cl)c3)CC2)c(NC(=O)Nc2ccc(Cl)cc2)c1 | 0.501 µM [rising, full curve] |  |
| COc1cc2c(cc1OC)-c1cc(Nc3cccc(C)c3)nc(=O)n1CC2 | 3.16 µM [rising, full curve, poor fit] | 4.47 µM [falling, partial curve, poor fit] |
| COc1ccc(/C=N/NC(=O)Cc2csc(Nc3cccc(C(F)(F)F)c3)n2)c(OC)c1 | 35.5 µM [falling, single point] |  |

Three neighbouring records out of the list so far, for reference:

| Compound | AC50 [1] | AC50 [2] |
| --- | --- | --- |
| O=C(NNC(=S)Nc1ccccc1)Nc1ccccc1 | 4.47 µM [falling, partial curve] |  |
| COc1ccccc1N(CC(=O)NCCSCc1cccc(C)c1)S(=O)(=O)c1ccccc1 | 25.1 µM [falling, single point] |  |
| COc1ccc(CCN(C(=O)C(F)(F)F)C(C(=O)NC2CCCC2)c2cccs2)cc1OC (stereo unspecified) | 4.61 µM [rising, full curve, poor fit] |  |

Additional compounds

| Compound | AC50 [1] | AC50 [2] |
| --- | --- | --- |
| CC1(OC(=O)C2CCCC2)C(=O)C=C2C=C(c3ccsc3)N(Cc3ccco3)C=C2C1=O (stereo unspecified) | 10 µM [rising, partial curve, poor fit] |  |
| Nc1sc(-c2ccccc2)n[n+]1Cc1cccc2cccnc12 | 35.5 µM [falling, single point] |  |
| COc1ccc(NS(=O)(=O)c2ccc(SC)cc2)cc1 | 16.4 µM [falling, single point] |  |
| S=c1[nH]nc(Nc2ccccc2Cl)s1 | 35.5 µM [falling, single point] |  |
| O=C1C2C3C=CC(C3)C2C(=O)N1Nc1c(Cl)cc(Cl)cc1Cl (stereo unspecified) | 2 µM [falling, partial curve, poor fit] |  |
| CCOc1cccc(/C=C2\NC(=S)N(c3ccccc3)C2=O)c1O | 2.24 µM [falling, full curve] |  |
| O=C(NC(=S)/C(=C1\CCCCCN1)[N+](=O)[O-])c1ccccc1 | 13 µM [rising, single point] |  |
| CC(Sc1cccc[n+]1[O-])C(=O)Nc1ccc([N+](=O)[O-])cc1Cl (stereo unspecified) |  | 17.8 µM [falling, partial curve, poor fit] |
| CC1SCC(=O)N(CC(=O)Nc2ccc3c(c2)OCO3)C1=O (stereo unspecified) | 0.259 µM [rising, full curve, poor fit] |  |
| Cn1c(N)c(C(=O)COC(=O)c2cc(S(=O)(=O)N3CCCCC3)ccc2Cl)c(=O)n(C)c1=O | 25.9 µM [rising, single point] |  |
| CC(C)(C)c1ccc(-c2nc(-c3ccncc3)no2)cc1 | 20.6 µM [rising, single point] |  |
| O=C(NC1CCCCC1)c1cc(-c2ccco2)on1 | 1.58 µM [falling, full curve, poor fit] |  |
| COc1ccc(N2C(=O)CC(N3CCN(c4ccc(C(=O)c5cccnc5)cc4)CC3)C2=O)cc1 (stereo unspecified) | 0.891 µM [falling, full curve, poor fit] |  |
| COc1ccc2sc(-c3ccccc3OC)c(-c3ccc(O)cc3)c2c1 | 8.2 µM [falling, partial curve] | 13 µM [rising, partial curve, poor fit] |
| CCOC(=O)C1CCN(C(=O)CNC(=O)OC(C)(C)C)CC1 | 29.1 µM [rising, single point] |  |
| CC1CCN(C(=O)Cn2cc([N+](=O)[O-])ccc2=O)c2ccccc2S1 (stereo unspecified) | 6.51 µM [rising, single point] |  |
| COc1ccccc1/C=N/NC(=S)NCc1ccco1 | 14.1 µM [falling, partial curve, poor fit] |  |
| Cc1ccc(NC(=O)Nc2cccs2)nc1 | 6.51 µM [falling, partial curve, poor fit] |  |
| Cc1ccnc(N/N=C/c2ccccc2)n1 | 16.4 µM [falling, partial curve] |  |
| CCN(CC)C(=O)CSc1ncccc1-c1nc2ccccc2[nH]1 | 2.82 µM [falling, full curve, poor fit] |  |

Fetched by compound from above (2):

| Compound | AC50 [1] | AC50 [2] |
| --- | --- | --- |
| CC1(OC(=O)C2CCCC2)C(=O)C=C2C=C(c3ccsc3)N(Cc3ccco3)C=C2C1=O (stereo unspecified) | 10 µM [rising, partial curve, poor fit] |  |
| COc1ccc2sc(-c3ccccc3OC)c(-c3ccc(O)cc3)c2c1 | 8.2 µM [falling, partial curve] | 13 µM [rising, partial curve, poor fit] |
